Results from PMC6541629.

By UniProt entry, the sequences of proteins in these tests, tags left out. Where a name states a change or a piece, a line headed by the entry shows the natural chain unless it says otherwise.
UniProt P27090: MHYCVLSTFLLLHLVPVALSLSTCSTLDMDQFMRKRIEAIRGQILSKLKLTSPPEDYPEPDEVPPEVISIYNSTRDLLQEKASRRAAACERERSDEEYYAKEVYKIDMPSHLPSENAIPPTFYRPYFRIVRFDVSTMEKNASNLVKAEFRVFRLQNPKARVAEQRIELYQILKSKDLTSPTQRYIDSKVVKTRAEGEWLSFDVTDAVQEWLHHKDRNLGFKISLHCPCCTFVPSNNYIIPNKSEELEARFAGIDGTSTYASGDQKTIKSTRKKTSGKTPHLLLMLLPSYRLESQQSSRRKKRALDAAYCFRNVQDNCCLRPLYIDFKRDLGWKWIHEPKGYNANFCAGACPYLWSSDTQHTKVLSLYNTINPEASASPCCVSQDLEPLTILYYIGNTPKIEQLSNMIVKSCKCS

Assays:
[1] = target: T1, fibromodulin (Fmod) (mouse (endogenous in peritoneal macrophages)) (UniProt P50608); experiment: co-IP; anti-Fmod antibody (100 µg) coupled to Dynabeads (5 mg); lysates of thioglycollate-elicited peritoneal macrophages from WT mice; washed three times with PBS; Western blot for TGF-β2, Fmod and NICD
T1 sequence: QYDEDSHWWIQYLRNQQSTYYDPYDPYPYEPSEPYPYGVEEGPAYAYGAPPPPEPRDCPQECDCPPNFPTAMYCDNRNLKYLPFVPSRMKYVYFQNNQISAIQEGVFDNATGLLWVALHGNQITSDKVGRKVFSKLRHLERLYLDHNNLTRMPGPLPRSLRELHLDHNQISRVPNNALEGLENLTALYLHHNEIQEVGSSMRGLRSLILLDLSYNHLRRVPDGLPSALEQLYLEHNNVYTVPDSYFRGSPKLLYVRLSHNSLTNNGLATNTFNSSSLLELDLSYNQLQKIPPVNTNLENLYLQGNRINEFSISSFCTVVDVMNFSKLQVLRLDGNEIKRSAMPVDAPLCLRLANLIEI

[2] = target: T1, fibromodulin (Fmod) (mouse (endogenous in peritoneal macrophages)); experiment: co-IP; anti-Fmod antibody (100 µg) coupled to Dynabeads (5 mg); lysates of thioglycollate-elicited peritoneal macrophages from Notch1+/- mice; washed three times with PBS; Western blot for TGF-β2, Fmod and NICD

transforming growth factor beta 2 (Tgf-β2) (from UniProt P27090)
binding [1]: binds weakly
binding [2]: binds

Results are given in words; binding and its absence hold for the method and conditions named. In cells and extracts the contact can be indirect. Binding calls can cover weak binding; strength is not graded here.
